The test system of the assay is CD2F1 mice, nontumored, toxicity/survival. Put plainly: NCI In Vivo Anticancer Drug Screen. Data for tumor model Nontumored Animals (Toxicity Test) in CD2F1 (CDF1) mice.

Here are results for three compounds from PubChem BioAssay AID188 (DTP/NCI, 2004).

Shown are survivors of the treated group in tumour-free mice. Survivors were counted at the toxicity check, usually on the fifth day, unless a day is given; later deaths do not show. Schedules are NCI's codes, read here as Q, the interval in days (D) or hours (H), X, the number of doses.

For the compound `COc1cc(C[C@H]2c3cc(OC)c(OC)cc3CCN2C)c(Oc2cc3c(cc2OC)-c2c(OC)c(OC)cc4c2[C@H](C3)N(C)CC4)cc1OC`, the survivor count (dose: 2.5 mg/kg/injection, schedule: Q03HX016 (ip), vehicle: saline) was 8 of 8; the survivor count (dose: 2.5 mg/kg/injection, schedule: Q03HX024 (ip), vehicle: saline) was 10 of 10; the survivor count (dose: 5.0 mg/kg/injection, schedule: Q03HX008 (ip), vehicle: saline) was 8 of 8; the survivor count (dose: 5.0 mg/kg/injection, schedule: Q03HX016 (ip), vehicle: saline) is 8 of 8; the survivor count (dose: 5.0 mg/kg/injection, schedule: Q03HX024 (ip), vehicle: saline) is recorded as 8 of 8; the survivor count (dose: 6.25 mg/kg/injection, schedule: Q01DX009 (ip), vehicle: saline) was 8 of 8. In addition, the survivor count is, setting by setting: (dose: 10.0 mg/kg/injection, schedule: Q03HX008 (ip), vehicle: saline) 8 of 8; (dose: 10.0 mg/kg/injection, schedule: Q03HX016 (ip), vehicle: saline) 8 of 8; (dose: 10.0 mg/kg/injection, schedule: Q03HX024 (ip), vehicle: saline) 8 of 8; (dose: 12.5 mg/kg/injection, schedule: Q01DX009 (ip), vehicle: saline) 8 of 8; (dose: 12.5 mg/kg/injection, schedule: Q01DX009 (oral), vehicle: saline) 8 of 8; (dose: 20.0 mg/kg/injection, schedule: Q03HX008 (ip), vehicle: saline) 8 of 8. Further, the survivor count is 8 of 8 (dose: 20.0 mg/kg/injection, schedule: Q03HX016 (ip), vehicle: saline); 8 of 8 (dose: 20.0 mg/kg/injection, schedule: Q03HX024 (ip), vehicle: saline); 8 of 8 (dose: 25.0 mg/kg/injection, schedule: Q01DX009 (ip), vehicle: saline); 7 of 8 (dose: 25.0 mg/kg/injection, schedule: Q01DX009 (oral), vehicle: saline); 8 of 8 (dose: 25.0 mg/kg/injection, schedule: Q04DX003 (ip), vehicle: saline); 8 of 8 (dose: 25.0 mg/kg/injection, schedule: Q08DX002 (ip), vehicle: saline). Also, the survivor count runs as follows: (dose: 40.0 mg/kg/injection, schedule: Q03HX008 (ip), vehicle: saline) 8 of 8; (dose: 40.0 mg/kg/injection, schedule: Q03HX016 (ip), vehicle: saline) 8 of 8; (dose: 40.0 mg/kg/injection, schedule: Q03HX024 (ip), vehicle: saline) 8 of 8; (dose: 50.0 mg/kg/injection, schedule: Q01DX001 (ip), vehicle: saline) 8 of 8; (dose: 50.0 mg/kg/injection, schedule: Q01DX009 (ip), vehicle: saline) 8 of 8; (dose: 50.0 mg/kg/injection, schedule: Q01DX009 (oral), vehicle: saline) 7 of 8. In addition, the survivor count is on record as 8 of 8 (dose: 50.0 mg/kg/injection, schedule: Q04DX003 (ip), vehicle: saline); 8 of 8 (dose: 50.0 mg/kg/injection, schedule: Q08DX002 (ip), vehicle: saline); 8 of 8 (dose: 80.0 mg/kg/injection, schedule: Q03HX008 (ip), vehicle: saline); 8 of 8 (dose: 100.0 mg/kg/injection, schedule: Q01DX001 (ip), vehicle: saline); 8 of 8 (dose: 100.0 mg/kg/injection, schedule: Q01DX001 (oral), vehicle: saline); 8 of 8 (dose: 100.0 mg/kg/injection, schedule: Q01DX009 (ip), vehicle: saline). Also, the survivor count by setting is: (dose: 100.0 mg/kg/injection, schedule: Q01DX009 (oral), vehicle: saline) 8 of 8; (dose: 100.0 mg/kg/injection, schedule: Q04DX003 (ip), vehicle: saline) 8 of 8; (dose: 100.0 mg/kg/injection, schedule: Q08DX002 (ip), vehicle: saline) 8 of 8; (dose: 200.0 mg/kg/injection, schedule: Q01DX001 (ip), vehicle: saline) 8 of 8; (dose: 200.0 mg/kg/injection, schedule: Q01DX001 (oral), vehicle: saline) 7 of 8; (dose: 200.0 mg/kg/injection, schedule: Q01DX009 (oral), vehicle: saline) 6 of 8. For the same compound, the survivor count was 8 of 8 (dose: 200.0 mg/kg/injection, schedule: Q04DX003 (ip), vehicle: saline); 8 of 8 (dose: 200.0 mg/kg/injection, schedule: Q08DX002 (ip), vehicle: saline); 8 of 8 (dose: 400.0 mg/kg/injection, schedule: Q01DX001 (ip), vehicle: saline); 7 of 8 (dose: 400.0 mg/kg/injection, schedule: Q01DX001 (oral), vehicle: saline); 8 of 8 (dose: 400.0 mg/kg/injection, schedule: Q04DX003 (ip), vehicle: saline); 8 of 8 (dose: 400.0 mg/kg/injection, schedule: Q08DX002 (ip), vehicle: saline). Moreover, the survivor count is reported as 8 of 8 (dose: 800.0 mg/kg/injection, schedule: Q01DX001 (ip), vehicle: saline); 8 of 8 (dose: 800.0 mg/kg/injection, schedule: Q01DX001 (oral), vehicle: saline); 8 of 8 (dose: 1600.0 mg/kg/injection, schedule: Q01DX001 (oral), vehicle: saline).

In the case of `COc1ccc(N=NN(C)C)cc1`, the survivor count runs as follows: (dose: 19.0 mg/kg/injection, schedule: Q01DX009 (ip), vehicle: Klucel (hydroxypropylcellulose) (HPC)) 10 of 10; (dose: 29.0 mg/kg/injection, schedule: Q01DX009 (ip), vehicle: Klucel (hydroxypropylcellulose) (HPC)) 9 of 10; (dose: 44.0 mg/kg/injection, schedule: Q01DX009 (ip), vehicle: Klucel (hydroxypropylcellulose) (HPC)) 9 of 10; (dose: 67.0 mg/kg/injection, schedule: Q01DX009 (ip), vehicle: Klucel (hydroxypropylcellulose) (HPC)) 6 of 10; (dose: 100.0 mg/kg/injection, schedule: Q01DX009 (ip), vehicle: Klucel (hydroxypropylcellulose) (HPC)) 5 of 10.

For `Cn1cnc([N+](=O)[O-])c1Sc1ncnc2nc[nH]c12`, the survivor count is, setting by setting: (dose: 50.0 mg/kg/injection, schedule: Q01DX001 (ip), vehicle: saline with Tween-80) 3 of 3; (dose: 50.0 mg/kg/injection, schedule: Q01DX005 (ip), vehicle: saline with Tween-80) 3 of 3; (dose: 100.0 mg/kg/injection, schedule: Q01DX001 (ip), vehicle: saline with Tween-80) 3 of 3; (dose: 100.0 mg/kg/injection, schedule: Q01DX005 (ip), vehicle: saline with Tween-80) 3 of 3; (dose: 200.0 mg/kg/injection, schedule: Q01DX001 (ip), vehicle: saline with Tween-80) 3 of 3; (dose: 200.0 mg/kg/injection, schedule: Q01DX005 (ip), vehicle: saline with Tween-80) 3 of 3. Also, the survivor count by setting is: (dose: 360.0 mg/kg/injection, schedule: Q01DX001 (ip), vehicle: saline with Tween-80) 3 of 3; (dose: 400.0 mg/kg/injection, schedule: Q01DX001 (ip), vehicle: saline with Tween-80) 3 of 3; (dose: 400.0 mg/kg/injection, schedule: Q01DX005 (ip), vehicle: saline with Tween-80) 1 of 3; (dose: 600.0 mg/kg/injection, schedule: Q01DX001 (ip), vehicle: saline with Tween-80) 3 of 3; (dose: 1000.0 mg/kg/injection, schedule: Q01DX001 (ip), vehicle: saline with Tween-80) 0 of 3.
